The campaign covered roughly 320,000 compounds. About 2,100 (0.66%) were called active. Inconclusive means that the source gave no clear call. Such entries were picked first, then a sample of the others. Calls come from the whole dose curve; as a rule, active = well fitted inhibition curve with a large enough effect in the signal ratio, with a control signal flat (not every such curve was filed as active); inconclusive = small, poorly fitted or top-dose-only effect, or effect the other way, or a change in a side signal; inactive = flat fitted curve, though single readings scatter; the % refers to the signal ratio. Potencies of inconclusive entries are doubtful fits and often do not repeat.
Assay: qHTS Assay for Lipid Storage Modulators in Drosophila S3 Cells
Settings: BODIPY lipid droplet fluorescence, 18-24 h, cells fed with added oleic acid; lipid storage change, negative = inhibition: at 46.1 µM (top of the series) unless noted
Method in brief: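 Drosophila S3 cells loaded with oleic acid (400 uM, as added) and compounds at several concentrations; lipid droplets imaged by 488-nm laser-scanning cytometry, 500–530 nm intensity and object ratio to cell channel. Percent activity normalized to 20 uM Triacsin C.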
In the case of COc1ccccc1NC(=O)C(C)N1CCN(C/C=C/c2ccccc2)CC1 (centres undefined), the lipid storage change, negative = inhibition is reported as inconclusive: -13.3%.
With O=C(COc1ccc(-n2cnnn2)cc1)NC(=O)NCc1ccccc1 the lipid storage change, negative = inhibition was inconclusive: 10.7%.
With Nc1ccc(S(=O)(=O)Nc2nc3ccccc3o2)cc1 the Potency was inconclusive: 18.4 µM [activator, partial curve].
In the case of CCOC(=O)C1CCCN(c2c(N3CCC(N4CCCCC4)CC3)c(=O)c2=O)C1 (centres undefined), the Potency is reported as inconclusive: 29.1 µM [activator, partial curve, poor fit].
With Cc1cccc(NC(=O)Nc2cnccn2)c1 the lipid storage change, negative = inhibition was inconclusive: 15.9% [at 9.22 µM].
For Cc1cc(-c2n[nH]c(=S)n2/N=C/c2ccc(Cl)c([N+](=O)[O-])c2)n[nH]1, the Potency was inconclusive: 5.8 µM [activator, full curve].
In the case of CCCCCCCC1=CC2=CC(=O)C(C)(OC(C)=O)C(=O)C2=CN1CCc1ccccc1 (centres undefined), the lipid storage change, negative = inhibition is reported as inconclusive: 5.56%.
For COc1ccc(OC)c(CCNC(=O)c2nn(C)c3c2CS(=O)(=O)c2ccccc2-3)c1, the lipid storage change, negative = inhibition was inconclusive: -11.2%.
For COc1ccc(C2NCCC3(O)CCCCC23)c(OC)c1OC (centres undefined), the lipid storage change, negative = inhibition was inconclusive: 8.16%.
For COc1ccc(NC2CCCN(C(=O)c3ccc(OC)cc3OC)C2)cc1 (centres undefined), the Potency was inconclusive: 0.651 µM [falling, partial curve, poor fit].
For Cc1[nH]c(-c2ccccn2)nc(=S)c1Cl, the lipid storage change, negative = inhibition was inconclusive: -38.1%.
For CCOC(=O)c1cc2c(N)c(C(=O)c3ccc(Br)cc3)sc2[nH]c1=O, the lipid storage change, negative = inhibition was inconclusive: 8.73%.
With Cc1cc(C)nc(/N=C2\NC(=O)CC(C(=O)O)N2c2ccc(Oc3ccccc3)cc2)n1 (centres undefined) the Potency was inconclusive: 16.4 µM [activator, single point].
For CCOC(=S)SCC(=O)Nc1nc(C)c(C)s1, the Potency was inconclusive: 29.1 µM [falling, single point].
For Cc1cccc(CSCCNC(=S)Nc2ccccc2)c1, the lipid storage change, negative = inhibition was inconclusive: -12.6%.
In the case of S=c1[nH]nc(-c2cc(-c3ccccc3)n[nH]2)n1/N=C/c1ccc(Cl)c(Cl)c1, the Potency is reported as inconclusive: 29.1 µM [cytotoxic, single point].
With COC(=O)c1ccccc1S(=O)(=O)N1CCC(C(=O)OCc2cccc(OC)c2OC)CC1 the lipid storage change, negative = inhibition was “inconclusive”.
For COC(=O)c1cccc(OCC(O)Cn2cnc3cc(C)c(C)cc32)c1 (centres undefined), the lipid storage change, negative = inhibition was inconclusive: 14.6%.
With Cc1c(NC(=O)Cn2nc(C(F)(F)F)c3c2CCCC3)c(=O)n(-c2ccccc2)n1C the lipid storage change, negative = inhibition was inconclusive: 55.5%.
With Cc1c(Cl)cccc1-n1nnnc1-c1cccs1 the Potency was inconclusive: 6.51 µM [activator, single point].
In the case of CCOC(=O)C1CCCN(C(=O)c2cn(CC)c(=O)c3cc(OC)c(OC)cc23)C1 (centres undefined), the lipid storage change, negative = inhibition is reported as inconclusive: 15.6%.
With Cc1ccc2c(c1)N(CC(=O)NCc1cccs1)C(=O)CO2 the lipid storage change, negative = inhibition was inconclusive: 21.3%.
For COc1ccc(-n2nc3c(N4CCC(C(=O)NCc5ccccc5)CC4)nnc(C)c3c2C)cc1, the Potency was inconclusive: 0.58 µM [activator, single point].
In the case of O=C(Nc1nc2c(Cl)cccc2s1)c1ccc([N+](=O)[O-])o1, the Potency is reported as active: 11.6 µM.
With CCN1CCCC1CNC(=O)C1c2cc(OC)c(OC)cc2C(=O)N(C)C1c1cccnc1 (centres undefined) the lipid storage change, negative = inhibition was inconclusive: -50.7%.
With O=C(CCN1C(=O)/C(=C\c2cccc(Br)c2)SC1=S)N1CCOCC1 the lipid storage change, negative = inhibition was inconclusive: 12%.
For O=C(c1cc(COc2ccc(F)cc2Cl)on1)N(CCO)Cc1cccs1, the Potency was inconclusive: 29.1 µM [activator, single point].
With CCOc1ccc(S(=O)(=O)Nc2nc3ccccc3nc2Cl)cc1 the lipid storage change, negative = inhibition was inconclusive: 32.4%.
With O=C(NNC(=O)c1ccncc1)Nc1cccc([N+](=O)[O-])c1 the lipid storage change, negative = inhibition was inconclusive: 24.3%.
In the case of CCOc1ccccc1OCCCC(=O)N(CC)CC(=O)Nc1ccc(NC(C)=O)cc1, the lipid storage change, negative = inhibition is reported as “inconclusive”.
In the case of CC(=O)NC(c1ccco1)c1cc(F)c2cccnc2c1O (centres undefined), the lipid storage change, negative = inhibition is reported as inconclusive: -5.54%.
For COc1ccc(CCN(C)C(=O)c2ccc(C)c(S(=O)(=O)N3CCCCC3)c2)cc1OC, the lipid storage change, negative = inhibition was inconclusive: -0.819%.
For O=C(CN1CCCC1)N1c2ccccc2Sc2ccc(Cl)cc21, the Potency was inconclusive: 0.103 µM [activator, full curve].
In the case of Cc1cccc(N(CC(=O)NC2CCCC2)C(=O)CCC(=O)Nc2ccccn2)c1, the lipid storage change, negative = inhibition is reported as inconclusive: -138%.
For O=C(NCc1cccnc1)C12CC3CC(CC(Cl)(C3)C1)C2, the lipid storage change, negative = inhibition was inconclusive: -31.7%.
With CS(=O)(=O)c1ccc2nc(NC(=O)c3ccccc3Cl)sc2c1 the lipid storage change, negative = inhibition was inconclusive: -42%.
With Cc1cc(C)nc(SCSc2nc(C)cc(C)n2)n1 the lipid storage change, negative = inhibition was inconclusive: 30.1%.
With CCC(=O)Nc1ccccc1Nc1cc(C#N)c(C#N)cc1[N+](=O)[O-] the lipid storage change, negative = inhibition was inconclusive: -26.6%.
In the case of COc1cccc(NC(=S)NC(=O)/C=C/c2ccco2)c1, the Potency is reported as inconclusive: 0.651 µM [activator, partial curve, poor fit].
With COc1ccc(NC(=O)CCCN2C(=O)/C(=C\c3ccco3)SC2=S)cc1 the lipid storage change, negative = inhibition was inconclusive: -20.7%.
In the case of CCN(CC)CCCNC1=C(Cl)C(=O)c2ccccc2C1=O, the lipid storage change, negative = inhibition is reported as inconclusive: -28.3%.
In the case of COC(=O)c1c(C)n(-c2ccc(OC)cc2)c2ccc(O)cc12, the Potency is reported as inconclusive: 29.1 µM [rising, single point].
With CCCC(=O)NC(=S)Nc1ccc(C(C)=O)cc1 the lipid storage change, negative = inhibition was “inactive”.
For COc1ccc(NC(=O)Cn2ncn3c(cc4ccccc43)c2=O)c(OC)c1OC, the lipid storage change, negative = inhibition was inconclusive: 189%.
For CN1CCN(CCCC(=O)c2ccc(C3CCCC3)cc2)CC1, the lipid storage change, negative = inhibition was inconclusive: 0.141%.
In the case of Cc1ccc2nc(SCc3nc4cc(Cl)ccc4c(=O)[nH]3)[nH]c2c1, the lipid storage change, negative = inhibition is reported as inconclusive: 44.5%.
In the case of COc1ccc(OC)c(NC(=O)CSc2nnc(Cc3cccn3C)n2CCc2ccccc2)c1, the lipid storage change, negative = inhibition is reported as inconclusive: 0.265%.
In the case of Cc1cccc2cc(CN(CCCO)C(=O)Nc3ccccc3Cl)c(=O)[nH]c12, the Potency is reported as inconclusive: 1.3 µM [activator, full curve].
With O=C(CCCCCN1C(=O)c2cccc3cccc(c23)C1=O)NC1CCS(=O)(=O)C1 (centres undefined) the Potency was inconclusive: 0.92 µM [activator, full curve, poor fit].
% is set by controls: 0 for no effect and ±100 for the full control effect; potency is the fitted concentration of half-maximal effect.
